Measurements as given in PubChem BioAssay AID256 (DTP/NCI, 2004).
The list is a part of this screen's results and no random one: it gathers tests that were run many times, whatever their T/C, doses with no T/C, and many T/C values between a quarter and a half above the control. Other doses and runs of a compound stand elsewhere. T/C: endpoint of the treated group in % of that of the vehicle group. Some doses have a count of surviving animals in place of a T/C: the source files T/C as zero there, which appears to mark a toxic dose or a test without result, not a measured value. Some doses without a T/C left all or most animals alive at the check, yet need not have been tolerated: the source hardly ever lists a survival T/C far under the control, and the zero likely stands for such cases as well. Counts of survivors are from the toxicity check (mostly the fifth day) where no day follows; animals may have died later. Schedule codes are those of the source, taken here to give the interval after Q, in days (D) or hours (H), and the number of doses after X. Some doses were run more than once; their values stand side by side, smallest first. Where survival is the endpoint, the PubChem record calls one and a half times the control and up active, and a quarter to a half above the control has no call in these data; cut-offs in other NCI protocols can differ. Some T/C values are followed by the survivors on the day toxicity was checked, most often the fifth; without a count, all were alive then.

Tested on: CD2F1 mice, L1210 leukemia ip, survival T/C
Test: NCI In Vivo Anticancer Drug Screen. Data for tumor model L1210 Leukemia (intraperitoneal) in CD2F1 (CDF1) mice
Details: higher T/C = longer survival
Procedure, shortened: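 Transplantable tumor in mice; compound-treated vs vehicle-treated groups. Read-out = treated/control ratio of the measured endpoint.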

[1] = T/C endpoint: mean survival time, dose: 100.0 mg/kg/injection, schedule: Q01DX001 (ip), vehicle: saline with Tween-80
[2] = T/C endpoint: mean survival time, dose: 200.0 mg/kg/injection, schedule: Q01DX001 (ip), vehicle: saline with Tween-80
[3] = T/C endpoint: mean survival time, dose: 400.0 mg/kg/injection, schedule: Q04DX002 (ip), vehicle: saline with Tween-80
[4] = T/C endpoint: mean survival time, dose: 200.0 mg/kg/injection, schedule: Q04DX003 (ip), vehicle: saline with Tween-80
[5] = T/C endpoint: mean survival time, dose: 400.0 mg/kg/injection, schedule: Q04DX003 (ip), vehicle: saline with Tween-80
[6] = T/C endpoint: mean survival time, dose: 150.0 mg/kg/injection, schedule: Q01DX001 (ip), vehicle: saline
[7] = T/C endpoint: mean survival time, dose: 300.0 mg/kg/injection, schedule: Q01DX001 (ip), vehicle: saline
[8] = T/C endpoint: mean survival time, dose: 400.0 mg/kg/injection, schedule: Q01DX001 (ip), vehicle: saline
[9] = T/C endpoint: mean survival time, dose: 100.0 mg/kg/injection, schedule: Q04DX003 (ip), vehicle: saline with Tween-80
[10] = T/C endpoint: mean survival time, dose: 400.0 mg/kg/injection, schedule: Q01DX009 (ip), vehicle: water
[11] = T/C endpoint: mean survival time, dose: 200.0 mg/kg/injection, schedule: Q04DX003 (ip), vehicle: saline

For `[N-]=[N+]=CC(=O)CCC(NC(=O)OCc1ccccc1)C(=O)OCc1ccccc1` (stereo not drawn), the T/C (T/C endpoint: median survival time, dose: 12.5 mg/kg/injection, schedule: Q01DX009 (ip), vehicle: Klucel (hydroxypropylcellulose) (HPC)) was 138 % of control, the T/C (T/C endpoint: median survival time, dose: 25.0 mg/kg/injection, schedule: Q01DX009 (ip), vehicle: Klucel (hydroxypropylcellulose) (HPC)) was 101, 130, 162, 164 % of control and the T/C (T/C endpoint: median survival time, dose: 50.0 mg/kg/injection, schedule: Q01DX009 (ip), vehicle: Klucel (hydroxypropylcellulose) (HPC)) was 105, 115, 131, 138 % of control. For the same compound, the T/C (T/C endpoint: median survival time, dose: 100.0 mg/kg/injection, schedule: Q01DX009 (ip), vehicle: Klucel (hydroxypropylcellulose) (HPC)) was 90, 94, 105, 178 % of control and the survivor count (T/C endpoint: median survival time, dose: 400.0 mg/kg/injection, schedule: Q01DX009 (ip), vehicle: Klucel (hydroxypropylcellulose) (HPC)) was 5 of 6 and 6 of 6.
With `O=C(Nc1ccc(Br)c2c(NC(=O)c3ccccc3)ccc(Br)c12)c1ccccc1` the survivor count (T/C endpoint: mean survival time, dose: 200.0 mg/kg/injection, schedule: Q01DX009 (ip), vehicle: saline with Tween-80) was 5 of 6 and the survivor count (T/C endpoint: mean survival time, dose: 400.0 mg/kg/injection, schedule: Q01DX009 (ip), vehicle: saline with Tween-80) was 6 of 6.
`c1ccc(C[P+](c2ccccc2)(c2ccccc2)c2ccccc2)cc1` was tested, and the survivor count [1] was 0 of 6, the survivor count [2] was 0 of 6 and the survivor count (T/C endpoint: mean survival time, dose: 400.0 mg/kg/injection, schedule: Q01DX001 (ip), vehicle: saline with Tween-80) was 0 of 6.
With `CC(C)(C)C1CCCCC1` the survivor count (T/C endpoint: mean survival time, dose: 400.0 mg/kg/injection, schedule: Q01DX009 (ip), vehicle: Klucel (hydroxypropylcellulose) (HPC)) was 3 of 6.
For `CCOC(=O)c1ccc(NC(=O)N(C)C2CCCCC2)cc1`, the survivor count [3] was 6 of 6.
With `Cc1nc2n3c(nc(C)c13)=CCC2` the survivor count [4] was 6 of 6 and the survivor count [5] was 1 of 6.
With `Nc1nc(N)c(-c2ccc(Cl)cc2)c(COc2cccc(NC(=O)CBr)c2)n1` the survivor count (T/C endpoint: mean survival time, dose: 50.0 mg/kg/injection, schedule: Q01DX001 (ip), vehicle: saline with Tween-80) was 1 of 6, the survivor count [1] was 0 of 6 and the survivor count [2] was 1 of 6.
In the case of `O=[n+]1cc2ccccn2cc1-c1ccccc1`, the survivor count [5] is reported as 6 of 6.
`COC(CN(C)Cc1c[nH]c2ccccc12)OC` was tested, and the survivor count [6] was 3 of 6 and the survivor count [7] was 1 of 6.
`CC1(C)CC(=O)C(C)(C)C(=O)C1` was tested, and the survivor count (T/C endpoint: mean survival time, dose: 200.0 mg/kg/injection, schedule: Q01DX001 (ip), vehicle: saline) was 1 of 6 and the survivor count [8] was 0 of 6.
`[CH3][Sb]([CH3])([CH3])([O]C(=O)CF)[O]C(=O)CF` was tested, and the survivor count [9] was 0 of 6, the survivor count [4] was 0 of 6 and the survivor count [5] was 0 of 6.
For `CC(=O)Nc1ncc2ccccc2c1-c1ccc(NC(=O)CCN(CCCl)CCCl)cc1`, the survivor count (T/C endpoint: mean survival time, dose: 50.0 mg/kg/injection, schedule: Q04DX003 (ip), vehicle: other) was 6 of 6 and the survivor count (T/C endpoint: mean survival time, dose: 100.0 mg/kg/injection, schedule: Q04DX003 (ip), vehicle: other) was 6 of 6.
In the case of `O=c1cc(O)cnn1C1OC(CO)C(O)C1O` (stereo not drawn), the T/C (T/C endpoint: mean survival time, dose: 200.0 mg/kg/injection, schedule: Q01DX009 (ip), vehicle: water) is reported as 132 % of control, the T/C [10] is reported as 132 % of control and the survivor count [10] is reported as 1 of 6.
With `CCCCC(NC(=O)CCl)C(=O)O` (stereo not drawn) the survivor count [3] was 0 of 3.
In the case of `CCC1(O)C(=O)OCc2c1cc1n(c2=O)Cc2cc3ccc(C#N)cc3nc2-1` (stereo not drawn), the survivor count (T/C endpoint: median survival time, dose: 40.0 mg/kg/injection, schedule: Q04DX002 (ip), vehicle: saline with Tween-80) is reported as 6 of 6 and the survivor count (T/C endpoint: median survival time, dose: 80.0 mg/kg/injection, schedule: Q04DX002 (ip), vehicle: saline with Tween-80) is reported as 6 of 6.
In the case of `CCN(CC)CCN(C)N=Nc1ccccc1C(=O)NN`, the survivor count (T/C endpoint: mean survival time, dose: 290.0 mg/kg/injection, schedule: Q01DX001 (ip), vehicle: saline) is reported as 1 of 6 and the survivor count (T/C endpoint: mean survival time, dose: 580.0 mg/kg/injection, schedule: Q01DX001 (ip), vehicle: saline) is reported as 0 of 6.
`CC(=O)CC(C)=NCC(C)N=C(C)CC(C)=O.c1cc[c]([Sn][c]2ccccc2)cc1` (stereo not drawn) was tested, and the survivor count (T/C endpoint: mean survival time, dose: 10.0 mg/kg/injection, schedule: Q01DX009 (ip), vehicle: saline with Tween-80) was 3 of 6 and the survivor count (T/C endpoint: mean survival time, dose: 20.0 mg/kg/injection, schedule: Q01DX001 (ip), vehicle: saline with Tween-80) was 0 of 6.
`CCN(CCNc1ccc(C)c2sc3ccccc3c(=O)c12)CC(C)(C)O` was tested, and the T/C [11] was 136 % of control, the T/C [8] was 126 % of control [5 of 6 alive] and the survivor count (T/C endpoint: mean survival time, dose: 600.0 mg/kg/injection, schedule: Q01DX001 (ip), vehicle: saline) was 3 of 6. For the same compound, the survivor count (T/C endpoint: mean survival time, dose: 600.0 mg/kg/injection, schedule: Q04DX003 (ip), vehicle: saline) was 3 of 6 and the survivor count (T/C endpoint: mean survival time, dose: 800.0 mg/kg/injection, schedule: Q04DX003 (ip), vehicle: saline) was 2 of 6.
In the case of `COC(=O)C1=[N+]([O-])[N+]([O-])=C(C(=O)OC)C1=O`, the survivor count (T/C endpoint: mean survival time, dose: 50.0 mg/kg/injection, schedule: Q01DX009 (ip), vehicle: Klucel (hydroxypropylcellulose) (HPC)) is reported as 2 of 3, the survivor count (T/C endpoint: mean survival time, dose: 100.0 mg/kg/injection, schedule: Q01DX009 (ip), vehicle: Klucel (hydroxypropylcellulose) (HPC)) is reported as 0 of 3 and the survivor count (T/C endpoint: mean survival time, dose: 200.0 mg/kg/injection, schedule: Q01DX009 (ip), vehicle: Klucel (hydroxypropylcellulose) (HPC)) is reported as 0 of 3.
For `CC(=O)Nc1ccc2ccccc2c1-c1c(NC(C)=O)ccc2ccccc12`, the survivor count [4] was 6 of 6.
With `Cc1cc(C)[nH]c(=S)n1.[Pt]` the T/C (T/C endpoint: mean survival time, dose: 25.0 mg/kg/injection, schedule: Q04DX003 (ip), vehicle: saline) was 129 % of control and the T/C [11] was 147 % of control.
`C[P+]1(c2ccccc2)c2ccccc2Oc2ccccc21` was tested, and the survivor count [6] was 0 of 6 and the survivor count [7] was 0 of 6.
For `NC(=S)N/N=C/c1ncccc1O`, the T/C (T/C endpoint: mean survival time, dose: 6.25 mg/kg/injection, schedule: Q03HX024 (ip), vehicle: saline) was 138 % of control, the T/C (T/C endpoint: mean survival time, dose: 12.5 mg/kg/injection, schedule: Q03HX024 (ip), vehicle: saline) was 137 and 145 % of control and the T/C (T/C endpoint: mean survival time, dose: 25.0 mg/kg/injection, schedule: Q03HX024 (ip), vehicle: saline) was 130 % of control. The T/C (T/C endpoint: median survival time, dose: 11.25 mg/kg/injection, schedule: Q03HX024 (ip), vehicle: saline) was 132 % of control, the T/C (T/C endpoint: median survival time, dose: 12.5 mg/kg/injection, schedule: Q01DX005 (ip), vehicle: saline) was 139 % of control and the T/C (T/C endpoint: median survival time, dose: 22.5 mg/kg/injection, schedule: Q03HX024 (ip), vehicle: saline) was 135 % of control. For the same compound, the T/C (T/C endpoint: median survival time, dose: 25.0 mg/kg/injection, schedule: Q01DX005 (ip), vehicle: saline) was 134 % of control, the T/C (T/C endpoint: median survival time, dose: 25.0 mg/kg/injection, schedule: Q01DX005 (ip), vehicle: suspension in saline) was 144 % of control and the T/C (T/C endpoint: median survival time, dose: 45.0 mg/kg/injection, schedule: Q03HX024 (ip), vehicle: saline) was 135 % of control. The T/C (T/C endpoint: median survival time, dose: 50.0 mg/kg/injection, schedule: Q01DX005 (ip), vehicle: suspension in saline) was 141 % of control, the T/C (T/C endpoint: median survival time, dose: 90.0 mg/kg/injection, schedule: Q03HX024 (ip), vehicle: saline) was 142 % of control and the T/C (T/C endpoint: median survival time, dose: 100.0 mg/kg/injection, schedule: Q01DX005 (ip), vehicle: saline) was 147 % of control. For the same compound, the survivor count (T/C endpoint: median survival time, dose: 108.0 mg/kg/injection, schedule: Q03HX008 (ip), vehicle: suspension in saline) was 5 of 6, the survivor count (T/C endpoint: median survival time, dose: 161.6 mg/kg/injection, schedule: Q03HX008 (ip), vehicle: suspension in saline) was 3 of 6 and the T/C (T/C endpoint: median survival time, dose: 161.6 mg/kg/injection, schedule: Q04DX003 (ip), vehicle: suspension in saline) was 132 % of control. The T/C (T/C endpoint: median survival time, dose: 180.0 mg/kg/injection, schedule: Q04DX003 (ip), vehicle: suspension in saline) was 130 % of control, the survivor count (T/C endpoint: median survival time, dose: 200.0 mg/kg/injection, schedule: Q01DX005 (ip), vehicle: saline) was 4 of 6 and the T/C (T/C endpoint: median survival time, dose: 360.0 mg/kg/injection, schedule: Q04DX003 (ip), vehicle: suspension in saline) was 142 % of control. The survivor count (T/C endpoint: median survival time, dose: 400.0 mg/kg/injection, schedule: Q01DX005 (ip), vehicle: saline) was 2 of 6 and the survivor count (T/C endpoint: median survival time, dose: 400.0 mg/kg/injection, schedule: Q01DX005 (ip), vehicle: suspension in saline) was 5 of 6.
`CC(=O)OC1CC2C[CH]([Hg][Cl])C1C2` (stereo not drawn) was tested, and the survivor count [9] was 0 of 3, the survivor count [4] was 0 of 3 and the survivor count [5] was 0 of 3.
